The list shows a part of the results. The data scatter; read single values as rough.
compound: ClCC(=O)N[C@@H]1CCCc2ccccc12; assay: log2 mean competition ratio of IA-DTB cysteine labelling (DMSO/compound) (log2 ratio); higher = stronger cysteine engagement by compound; settings: 50 µM; treatment time: 4 h; cell line lysate: HEK293T
Experimental: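 IA-DTB competitive cysteine chemoproteomics in HEK293T RIPA lysate. Lysates were treated with compound 29 or 30 at 50 or 200 µM for 4 h, then IA-DTB (500 µM, 1 h), trypsin-digested, NeutrAvidin-enriched and analysed by diaPASEF. Competition ratio = intensity DMSO / intensity compound (n=4 treated, n=64 DMSO); binding: mean log2 CR ≥ 1 and p ≤ 0.05 plus QC filters. Target is the cysteine site.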

Chains of the proteins cited; added tags and fusions are not shown. Lines headed by an entry give the natural chain unless they say otherwise; changes in a name come on top. Residues count along the entry.
UniProt P49023: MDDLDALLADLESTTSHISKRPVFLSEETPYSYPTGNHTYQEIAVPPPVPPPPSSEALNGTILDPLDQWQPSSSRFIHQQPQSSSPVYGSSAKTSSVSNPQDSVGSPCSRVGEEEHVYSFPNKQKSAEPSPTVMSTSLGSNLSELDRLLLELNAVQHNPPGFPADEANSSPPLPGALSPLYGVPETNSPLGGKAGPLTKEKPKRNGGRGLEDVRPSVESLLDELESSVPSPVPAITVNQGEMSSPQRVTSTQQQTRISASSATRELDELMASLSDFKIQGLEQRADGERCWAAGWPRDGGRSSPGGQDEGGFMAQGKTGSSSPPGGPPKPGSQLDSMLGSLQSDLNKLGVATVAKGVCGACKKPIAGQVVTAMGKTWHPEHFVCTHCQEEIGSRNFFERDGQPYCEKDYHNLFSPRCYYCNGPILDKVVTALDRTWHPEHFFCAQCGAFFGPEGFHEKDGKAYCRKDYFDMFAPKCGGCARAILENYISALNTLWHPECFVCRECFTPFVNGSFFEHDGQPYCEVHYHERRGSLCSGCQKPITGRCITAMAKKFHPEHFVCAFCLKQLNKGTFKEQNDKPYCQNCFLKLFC
UniProt Q5THK1, 1411-1435: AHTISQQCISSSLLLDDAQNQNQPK
UniProt O60671: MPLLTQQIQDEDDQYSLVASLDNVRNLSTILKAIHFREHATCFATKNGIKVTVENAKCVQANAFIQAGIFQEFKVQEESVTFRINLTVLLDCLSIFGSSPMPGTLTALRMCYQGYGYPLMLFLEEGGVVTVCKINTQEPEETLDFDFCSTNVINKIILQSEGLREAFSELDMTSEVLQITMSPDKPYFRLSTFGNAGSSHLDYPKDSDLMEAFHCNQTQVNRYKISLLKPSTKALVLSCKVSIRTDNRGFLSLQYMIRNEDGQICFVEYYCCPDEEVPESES
UniProt P20337: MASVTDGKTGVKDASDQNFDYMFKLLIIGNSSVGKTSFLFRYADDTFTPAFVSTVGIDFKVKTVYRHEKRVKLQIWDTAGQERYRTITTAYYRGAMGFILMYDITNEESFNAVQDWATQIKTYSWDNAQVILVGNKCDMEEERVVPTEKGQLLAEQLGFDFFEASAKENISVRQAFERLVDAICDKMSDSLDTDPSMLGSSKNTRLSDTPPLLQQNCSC
UniProt Q9H3S7: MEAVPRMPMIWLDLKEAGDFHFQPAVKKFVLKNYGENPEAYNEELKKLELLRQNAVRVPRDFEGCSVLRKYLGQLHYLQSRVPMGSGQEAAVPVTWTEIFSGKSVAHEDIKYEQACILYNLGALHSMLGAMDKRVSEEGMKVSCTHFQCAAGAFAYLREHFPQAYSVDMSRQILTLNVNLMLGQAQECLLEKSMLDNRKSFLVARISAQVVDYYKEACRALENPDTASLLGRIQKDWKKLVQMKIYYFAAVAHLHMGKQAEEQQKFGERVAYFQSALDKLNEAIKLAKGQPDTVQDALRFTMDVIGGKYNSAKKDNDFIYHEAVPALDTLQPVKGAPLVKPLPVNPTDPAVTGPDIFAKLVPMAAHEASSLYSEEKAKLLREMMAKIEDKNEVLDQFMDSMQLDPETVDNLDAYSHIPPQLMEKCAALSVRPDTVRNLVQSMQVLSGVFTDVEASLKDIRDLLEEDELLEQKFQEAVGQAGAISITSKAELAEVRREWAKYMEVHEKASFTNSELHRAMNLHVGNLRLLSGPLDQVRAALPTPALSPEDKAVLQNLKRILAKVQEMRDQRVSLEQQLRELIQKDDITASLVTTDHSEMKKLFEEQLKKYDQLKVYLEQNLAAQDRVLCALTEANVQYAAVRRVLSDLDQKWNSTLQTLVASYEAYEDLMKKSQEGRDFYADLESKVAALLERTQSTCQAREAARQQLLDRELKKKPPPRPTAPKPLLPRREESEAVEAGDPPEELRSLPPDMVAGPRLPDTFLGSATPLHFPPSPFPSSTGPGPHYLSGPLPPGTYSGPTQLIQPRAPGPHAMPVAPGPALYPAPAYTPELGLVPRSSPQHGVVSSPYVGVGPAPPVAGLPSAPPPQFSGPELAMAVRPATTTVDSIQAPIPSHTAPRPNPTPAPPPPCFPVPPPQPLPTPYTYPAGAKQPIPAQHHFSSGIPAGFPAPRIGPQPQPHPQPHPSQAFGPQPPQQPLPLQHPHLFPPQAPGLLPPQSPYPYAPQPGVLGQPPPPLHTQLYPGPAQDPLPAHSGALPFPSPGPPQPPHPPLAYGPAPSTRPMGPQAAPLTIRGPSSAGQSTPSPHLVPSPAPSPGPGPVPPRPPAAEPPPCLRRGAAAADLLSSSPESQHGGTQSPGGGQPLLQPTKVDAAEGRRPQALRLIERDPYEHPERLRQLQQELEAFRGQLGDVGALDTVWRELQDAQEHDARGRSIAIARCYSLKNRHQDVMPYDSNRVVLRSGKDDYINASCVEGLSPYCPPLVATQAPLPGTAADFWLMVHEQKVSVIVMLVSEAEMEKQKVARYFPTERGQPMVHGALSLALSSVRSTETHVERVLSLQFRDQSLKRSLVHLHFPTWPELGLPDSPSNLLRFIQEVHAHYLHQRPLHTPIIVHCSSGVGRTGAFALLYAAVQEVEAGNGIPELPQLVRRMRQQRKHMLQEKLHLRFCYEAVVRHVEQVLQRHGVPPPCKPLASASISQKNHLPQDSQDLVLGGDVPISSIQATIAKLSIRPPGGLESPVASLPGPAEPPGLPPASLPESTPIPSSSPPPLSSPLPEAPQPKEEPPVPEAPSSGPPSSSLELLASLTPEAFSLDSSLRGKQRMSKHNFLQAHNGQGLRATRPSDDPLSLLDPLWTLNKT
UniProt Q15008: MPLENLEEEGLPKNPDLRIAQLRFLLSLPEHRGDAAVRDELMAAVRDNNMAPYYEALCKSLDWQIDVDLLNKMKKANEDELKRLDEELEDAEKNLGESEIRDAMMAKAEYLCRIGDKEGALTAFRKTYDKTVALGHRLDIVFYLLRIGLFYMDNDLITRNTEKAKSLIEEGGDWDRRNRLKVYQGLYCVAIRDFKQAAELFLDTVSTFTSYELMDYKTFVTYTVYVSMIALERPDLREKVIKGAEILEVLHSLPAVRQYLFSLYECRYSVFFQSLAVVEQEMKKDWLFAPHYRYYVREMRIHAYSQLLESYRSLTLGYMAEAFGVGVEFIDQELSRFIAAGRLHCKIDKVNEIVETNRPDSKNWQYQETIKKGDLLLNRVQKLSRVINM
UniProt Q96PZ0: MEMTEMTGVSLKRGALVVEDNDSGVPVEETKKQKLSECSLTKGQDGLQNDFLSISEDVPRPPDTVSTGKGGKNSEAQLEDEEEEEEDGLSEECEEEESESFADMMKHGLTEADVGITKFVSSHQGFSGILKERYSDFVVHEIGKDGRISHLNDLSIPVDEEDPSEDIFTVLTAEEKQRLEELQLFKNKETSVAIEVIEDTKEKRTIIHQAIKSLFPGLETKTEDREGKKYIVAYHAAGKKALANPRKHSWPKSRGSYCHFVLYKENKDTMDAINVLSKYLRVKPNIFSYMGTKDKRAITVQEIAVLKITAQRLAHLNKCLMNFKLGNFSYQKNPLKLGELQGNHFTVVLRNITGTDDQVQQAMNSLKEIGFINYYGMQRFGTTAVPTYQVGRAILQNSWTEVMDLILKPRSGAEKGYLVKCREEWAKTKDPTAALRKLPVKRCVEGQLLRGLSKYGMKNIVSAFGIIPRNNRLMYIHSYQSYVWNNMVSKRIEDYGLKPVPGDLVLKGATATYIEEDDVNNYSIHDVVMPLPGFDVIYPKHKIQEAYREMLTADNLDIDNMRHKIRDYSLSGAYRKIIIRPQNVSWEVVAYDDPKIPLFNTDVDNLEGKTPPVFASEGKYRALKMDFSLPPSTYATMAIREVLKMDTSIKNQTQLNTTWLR
UniProt Q9NS91, 384-406: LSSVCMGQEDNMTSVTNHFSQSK
UniProt Q5JS54: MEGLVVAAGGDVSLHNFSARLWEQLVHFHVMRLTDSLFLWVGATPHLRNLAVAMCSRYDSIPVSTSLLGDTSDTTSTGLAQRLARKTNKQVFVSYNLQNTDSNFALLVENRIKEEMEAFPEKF
UniProt Q9Y3T6: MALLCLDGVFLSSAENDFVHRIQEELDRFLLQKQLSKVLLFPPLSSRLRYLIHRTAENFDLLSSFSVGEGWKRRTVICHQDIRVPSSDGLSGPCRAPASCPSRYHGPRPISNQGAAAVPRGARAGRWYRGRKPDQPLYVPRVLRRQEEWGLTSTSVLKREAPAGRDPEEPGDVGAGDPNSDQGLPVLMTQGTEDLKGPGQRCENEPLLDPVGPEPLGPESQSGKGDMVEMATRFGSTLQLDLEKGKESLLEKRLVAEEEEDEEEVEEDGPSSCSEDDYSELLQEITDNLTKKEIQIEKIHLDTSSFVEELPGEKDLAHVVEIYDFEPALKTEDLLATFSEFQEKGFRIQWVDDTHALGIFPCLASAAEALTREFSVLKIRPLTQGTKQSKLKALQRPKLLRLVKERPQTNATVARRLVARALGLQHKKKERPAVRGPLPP
UniProt O75943: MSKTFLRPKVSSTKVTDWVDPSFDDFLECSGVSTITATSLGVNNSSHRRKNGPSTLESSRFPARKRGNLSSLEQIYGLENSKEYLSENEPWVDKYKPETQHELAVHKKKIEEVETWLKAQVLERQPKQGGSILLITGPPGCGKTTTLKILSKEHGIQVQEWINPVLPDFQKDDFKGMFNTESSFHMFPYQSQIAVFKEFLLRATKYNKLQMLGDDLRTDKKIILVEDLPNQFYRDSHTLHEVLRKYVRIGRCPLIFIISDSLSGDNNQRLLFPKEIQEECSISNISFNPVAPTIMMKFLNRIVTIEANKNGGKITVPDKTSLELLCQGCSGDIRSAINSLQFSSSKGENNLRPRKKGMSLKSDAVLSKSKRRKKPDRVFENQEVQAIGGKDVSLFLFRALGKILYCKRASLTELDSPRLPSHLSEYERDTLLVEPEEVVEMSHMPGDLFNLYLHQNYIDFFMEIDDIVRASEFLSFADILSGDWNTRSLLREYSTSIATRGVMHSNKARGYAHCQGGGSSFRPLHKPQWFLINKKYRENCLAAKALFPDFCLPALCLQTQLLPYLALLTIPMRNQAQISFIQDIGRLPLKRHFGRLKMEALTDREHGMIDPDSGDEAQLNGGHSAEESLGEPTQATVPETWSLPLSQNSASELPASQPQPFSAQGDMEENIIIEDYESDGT
UniProt Q9Y620: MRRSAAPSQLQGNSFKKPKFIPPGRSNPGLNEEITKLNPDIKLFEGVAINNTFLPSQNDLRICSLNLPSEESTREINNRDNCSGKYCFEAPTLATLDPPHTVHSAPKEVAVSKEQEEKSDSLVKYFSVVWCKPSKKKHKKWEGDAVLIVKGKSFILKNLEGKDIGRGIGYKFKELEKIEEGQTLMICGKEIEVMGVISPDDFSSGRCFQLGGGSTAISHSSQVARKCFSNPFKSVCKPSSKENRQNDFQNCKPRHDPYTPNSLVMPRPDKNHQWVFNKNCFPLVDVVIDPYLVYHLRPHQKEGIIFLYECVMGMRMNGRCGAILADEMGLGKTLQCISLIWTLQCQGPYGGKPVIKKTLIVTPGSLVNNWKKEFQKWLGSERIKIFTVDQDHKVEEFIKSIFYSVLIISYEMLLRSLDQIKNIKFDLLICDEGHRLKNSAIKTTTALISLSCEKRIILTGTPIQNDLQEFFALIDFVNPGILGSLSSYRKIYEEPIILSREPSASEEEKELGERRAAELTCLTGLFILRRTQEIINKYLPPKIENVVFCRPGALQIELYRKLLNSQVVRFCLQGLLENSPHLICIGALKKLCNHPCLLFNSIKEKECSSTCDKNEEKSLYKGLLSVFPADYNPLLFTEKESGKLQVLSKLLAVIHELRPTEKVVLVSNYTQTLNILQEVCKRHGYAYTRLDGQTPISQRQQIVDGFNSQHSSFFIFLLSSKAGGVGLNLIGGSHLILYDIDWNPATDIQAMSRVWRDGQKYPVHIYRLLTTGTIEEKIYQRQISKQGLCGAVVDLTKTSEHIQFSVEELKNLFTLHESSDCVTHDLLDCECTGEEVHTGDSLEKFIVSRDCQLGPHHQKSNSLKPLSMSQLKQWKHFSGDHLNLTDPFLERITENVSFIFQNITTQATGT
UniProt Q9H0R6: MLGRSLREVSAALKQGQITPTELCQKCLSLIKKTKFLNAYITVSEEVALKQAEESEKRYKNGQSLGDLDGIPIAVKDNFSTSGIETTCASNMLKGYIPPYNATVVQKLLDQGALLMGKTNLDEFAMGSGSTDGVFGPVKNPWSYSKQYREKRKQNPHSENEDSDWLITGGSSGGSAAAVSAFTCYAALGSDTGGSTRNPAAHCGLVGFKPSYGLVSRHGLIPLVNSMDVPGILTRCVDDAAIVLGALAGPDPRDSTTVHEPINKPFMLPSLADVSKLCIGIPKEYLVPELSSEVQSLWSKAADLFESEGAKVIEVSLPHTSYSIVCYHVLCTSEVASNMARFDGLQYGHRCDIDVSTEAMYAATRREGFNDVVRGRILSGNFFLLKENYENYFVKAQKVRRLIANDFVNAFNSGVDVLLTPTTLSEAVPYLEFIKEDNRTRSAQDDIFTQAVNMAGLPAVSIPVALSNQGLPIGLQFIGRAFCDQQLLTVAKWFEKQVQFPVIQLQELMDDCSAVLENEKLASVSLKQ

Row | Target | log2 mean competition ratio
1 | PSMC5 C112 | -0.16
2 | PXN C108 (UniProt P49023) | 0.108
3 | PWWP3A C228 | -0.282
4 | PRRC2B C819 | 0.00534
5 | PRR14L C1418 (UniProt Q5THK1) | 0.143
6 | RAD1 C239 (UniProt O60671) | 0.1
7 | RAB3B C184 (UniProt P20337) | -0.122
8 | PSMA3 C42 | -0.0397
9 | PTPN23 C65 (UniProt Q9H3S7) | 0.0329
10 | PSMD6 C58 (UniProt Q15008) | 0.296
11 | PUS7 C421 (UniProt Q96PZ0) | 0.15
12 | PTPN13 C798 (UniProt Q12923) | 0.256
13 | RAD18 C388 (UniProt Q9NS91) | 0.247
14 | PSMG4 C55 (UniProt Q5JS54) | 0.279
15 | RAD50 C48 | -0.134
16 | R3HCC1 C78 (UniProt Q9Y3T6+R3HCC1) | -0.126
17 | RAD17 C141 (UniProt O75943) | -0.217
18 | RAD54B C251 (UniProt Q9Y620) | -0.143
19 | QRSL1 C236 (UniProt Q9H0R6) | -0.198
20 | RAB3IL1 C29 | -0.0951

same assay, conditions: 200 µM; treatment time: 4 h; cell line lysate: HEK293T

Row | Target | log2 mean competition ratio
21 | PSMC5 C112 | 0.0911
22 | PXN C108 (UniProt P49023) | 0.123
23 | PWWP3A C228 | -0.329
24 | PRRC2B C819 | 0.0523
25 | PRR14L C1418 (UniProt Q5THK1) | 0.297
26 | RAD1 C239 (UniProt O60671) | -0.00327
27 | RAB3B C184 (UniProt P20337) | -0.0829
28 | PSMA3 C42 | 0.103
29 | PTPN23 C65 (UniProt Q9H3S7) | 0.219
30 | PSMD6 C58 (UniProt Q15008) | 0.0436
31 | PUS7 C421 (UniProt Q96PZ0) | -0.185
32 | PTPN13 C798 (UniProt Q12923) | 0.386
33 | RAD18 C388 (UniProt Q9NS91) | 0.207
34 | PSMG4 C55 (UniProt Q5JS54) | -0.292
35 | RAD50 C48 | -0.109
36 | R3HCC1 C78 (UniProt Q9Y3T6+R3HCC1) | 0.128
37 | RAD17 C141 (UniProt O75943) | 0.13
38 | RAD54B C251 (UniProt Q9Y620) | 0.384
39 | QRSL1 C236 (UniProt Q9H0R6) | -0.296
40 | RAB3IL1 C29 | 0.319
